The values are deposited in ChEMBL (CHEMBL3988442, “University of Dundee, Small-Polar-MMV Screening Library” (2021)).

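Viability assay of Plasmodium falciparum sporozoites; the read-out is not stated. The concentration is filed as 10 mM, unlikely as a test dose, so the dose is not known. Direction is inferred from retests: higher values go with lower viability. Strong results were mostly tested again. About 34,000 compounds were tested under these conditions; 0.84% (about 280) showed 50% or more at least once.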

The filed quantity is “Percent Effect” (%). How 0% and 100% were set is not recorded. Most values in the screen are low, and negative values occur. This is an unselected part of the compounds tested. Two or more numbers in one place are separate tests of the same structure; such repeats can differ widely.

| # | compound | effect |
|---|---|---|
| 1 | `Cc1ccnc(NC(=O)c2cncc(C3CCNCC3)n2)c1` | 28.13% |
| 2 | `Cc1cc(NCCN2CCNC2=O)nc2cc3c(cc12)CCC3` | 21.08% |
| 3 | `CC1(C(=O)Nc2ccc(F)c(-n3cccc3)c2)CCOCC1` | 1.001% |
| 4 | `COc1cccc(Cn2ncnc2CCC(C)N2CCN(C)CC2)c1` (stereo not drawn) | -9.256% |
| 5 | `Cn1cncc1CN1CCCC1c1cncc(Oc2ccc(Cl)cc2)n1` (stereo not drawn) | -1.278% |
| 6 | `CCc1cnc(CN2CCC(N(Cc3noc(CC)n3)C(C)=O)C2)o1` (stereo not drawn) | 11.07% |
| 7 | `CC(C)=CCC1(CO)CCCN(S(C)(=O)=O)C1` (stereo not drawn) | 3.047% |
| 8 | `Cc1nc(C2CCCN(C(=O)COCc3ccccc3Cl)C2)no1` (stereo not drawn) | -35.54% |
| 9 | `Cc1sc(C(=O)NC(C)C)cc1S(=O)(=O)N(C)C` | -3.551% |
| 10 | `COCCn1cc(NC(=O)NCC(c2cccc(F)c2)N(C)C)cn1` (stereo not drawn) | 3.74% & -9.92% & -19.52% |
| 11 | `CN(CCN1CCOCC1)C(=O)CCCc1ccccc1` | -10.48% |
| 12 | `CCOC1COC2(CCN(c3cccc(C)n3)CC2)C1.O=C(O)C(F)(F)F` (stereo not drawn) | 9.359% |
| 13 | `O=C(O)c1cc(S(=O)(=O)Nc2ccc(F)c(Cl)c2)cc2c1OCCO2` | 12.45% |
| 14 | `CCc1cnc(N2CCC3(CCN(Cc4cccc(C)c4)C3=O)C2)nc1` (stereo not drawn) | 10.77% |
| 15 | `CSc1ncc(C(=O)N2CCN(c3ccccc3C)CC2C)cn1` (stereo not drawn) | -9.592% |
| 16 | `CC(C)N1CCC2(CCCN(c3nccc(C(F)(F)F)n3)C2)CC1.O=C(O)C(F)(F)F` | 15.57% |
| 17 | `CCN(CC)S(=O)(=O)c1cc2c3c(c1)c(C)cc(=O)n3CC2` | 16.61% |
| 18 | `O=C(O)C(F)(F)F.[H][C@@]12CN(Cc3ccoc3)CCO[C@]1([H])CN(C(=O)Cc1cccs1)C2` | 8.941% |
| 19 | `Cc1ccccc1N1CCN(c2nc(N(C)C)nc3c2CCNC3)CC1` | 18.95% |
| 20 | `CSCCCNC(=O)C1CCC(=O)N(C2CCCC2)C1` (stereo not drawn) | 2.722% |
| 21 | `Cc1cccc2nc(CN3CCCC3Cn3cccn3)cn12` (stereo not drawn) | 10.19% |
| 22 | `O=C(Cn1c(C(F)F)cc2cccnc21)NC1CCCC1` | -39.73% |
| 23 | `O=C(O)C(F)(F)F.[H][C@]12CN(Cc3ccccc3F)C[C@@]1([H])OCCN(C(C)=O)C2` | -4.904% |
| 24 | `O=C(O)C(F)(F)F.O=C(O)C(F)(F)F.[H][C@@]12COC[C@]1(COCC1CC1)CN(Cc1ccncc1)C2` | -0.6579% |
| 25 | `Cl.O=C(NC1CCCC1)c1cc(C2CCCNC2)n[nH]1` (stereo not drawn) | 6.244% |
| 26 | `CC(=O)Nc1nc(C(=O)N2CCCC2Cn2cccn2)cs1` (stereo not drawn) | 2.075% |
| 27 | `CS(=O)(=O)N1CCC(c2ccncn2)CC1` | 8.133% |
| 28 | `O=C(O)C1(Cc2cccc(Cl)c2)CCCN(c2ncnc3[nH]ccc23)C1` (stereo not drawn) | -20.64% & -30.91% |
| 29 | `O=C(Nc1nncs1)C1CSCN1C(=O)C1CCCC1` (stereo not drawn) | -1.053% |
| 30 | `C[C@@H]1CN(Cc2cccnc2)C[C@]12CCN(CCN1CCCC1)C2=O.O=C(O)C(F)(F)F.O=C(O)C(F)(F)F.O=C(O)C(F)(F)F` | -5.596% |
| 31 | `COc1ccccc1C(=O)N1CC(=O)N(Cc2ccco2)CC(O)C1` (stereo not drawn) | -21.8% |
| 32 | `O=C(CCNC(=O)c1ccccc1N1CCOCC1)NC1CCCC1` | -6.268% |
| 33 | `COCCS(=O)(=O)N(Cc1cscn1)c1ccccc1` | 1.643% |
| 34 | `COc1ncccc1C1CC(=O)NCc2nc3ccccn3c21` (stereo not drawn) | -7.166% |
| 35 | `Cc1noc(C(C)C)c1C(=O)NCCCN1CCNCC1.Cl` | -3.034% |
| 36 | `CN1CCCc2cc(-c3cncn3CC(=O)NC(C)(C)C)ccc21.Cl` | -0.2181% |
| 37 | `Cc1nc(Cn2nc(C3CCNCC3)n(Cc3ccccc3)c2=O)no1` | -11.18% |
| 38 | `CNc1ncc(CN2CCCC2c2[nH]ncc2C(=O)N(C)C)cn1` (stereo not drawn) | -3.9% |
| 39 | `CC(=O)N1CCCC1(C(=O)N1CCCC1)c1cnccn1` (stereo not drawn) | 14.24% |
| 40 | `CCc1nc(C(=O)N2CCCC2)nn1-c1ccccc1Cl` | 7.905% |
| 41 | `O=C(O)C(F)(F)F.[H][C@]12CCC[C@@]1(COCc1cccnc1)CN(C(=O)c1ccsc1)C2` | 0.8663% |
| 42 | `COc1ccc(CNC(Cc2ccsc2)c2ccc(C)cn2)cc1OC.Cl` (stereo not drawn) | -2.621% |
| 43 | `Cc1cc(CN2CCN(C(=O)c3sccc3C3CC3)CC2)on1` | -6.705% |
| 44 | `O=C(CC1CC1)N1CCn2cc(Cn3cccn3)nc2C1.O=C(O)C(F)(F)F` | 8.162% |
| 45 | `Cc1nn(C)cc1-c1cc(C(F)(F)F)n(CCCN)n1` | 11.96% |
| 46 | `Cc1cccc(C(=O)N2CCc3c(CN(C)C)nn(C)c3C2)n1` | -9.025% |

Once more, the final 5:

Result for COc1ccc(CNC(Cc2ccsc2)c2ccc(C)cn2)cc1OC.Cl (stereo not drawn) was -2.621%.
Result for Cc1cc(CN2CCN(C(=O)c3sccc3C3CC3)CC2)on1 was -6.705%.
Result for O=C(CC1CC1)N1CCn2cc(Cn3cccn3)nc2C1.O=C(O)C(F)(F)F was 8.162%.
Result for Cc1nn(C)cc1-c1cc(C(F)(F)F)n(CCCN)n1 was 11.96%.
Result for Cc1cccc(C(=O)N2CCc3c(CN(C)C)nn(C)c3C2)n1 was -9.025%.